Assay results taken from the supplement of paper PMC10398353.
Counter-ions that a name gives are not always drawn. ± gives the standard deviation of the averaged measurements. The list shows a part of the results. This is a noisy data set.

Test system: Salmonella enterica serovar Typhimurium ST313 D23580
Assay: normalized bacterial growth (OD600 20 h minus 0 h, interquartile-mean normalized) (fraction of plate interquartile mean); higher = more bacterial growth (less inhibition)
Settings: LPM (pH 5.8, low phosphate, low Mg2+), concentration: 10 µM, temperature: 37 °C

Row | SMILES | normalized bacterial growth
1 | CCCCCCCCCCCCCCCC(=O)NCCO [Palmitoylethanolamide] | 1.05
2 | CN1CCN(C2=Nc3cc(Cl)ccc3Nc3ccccc32)CC1 [Clozapine] | 0.669
3 | CCC(NC(C)C)C(O)c1ccc(O)c(O)c1 (stereo not given) [Isotharine mesylate] | 0.909
4 | CCC(Cc1c(I)cc(I)c(N)c1I)C(=O)O (stereo not given) | 1.08
5 | CN1CCc2cccc3c2[C@H]1Cc1ccc(O)c(O)c1-3 [Apomorphine hydrochloride hemihydrate] | 0.536
6 | CN1CCc2cccc3c2[C@H]1Cc1ccc(O)c(O)c1-3 [R(-) Apomorphine hydrochloride hemihydrate] | 0.787
7 | O=C1C=C2CC3(O)COc4c(ccc(O)c4O)C3=C2C=C1O (stereo not given) | 1.08
8 | C[C@]12CC[C@@H]3c4ccc(O)cc4CC[C@H]3[C@@H]1CC[C@@H]2OC(=O)CCC1CCCC1 | 1
9 | CO[C@@]1(NC(=O)CSCC#N)C(=O)N2C(C(=O)O)=C(CSc3nnnn3C)CS[C@@H]21 [Cefmetazole sodium] | 0.89
10 | CO[C@@]1(NC(=O)CSCC#N)C(=O)N2C(C(=O)O)=C(CSc3nnnn3C)CS[C@@H]21 | 1.02
11 | C[C@@H]1[C@H](O)[C@@H](C)/C=C/C=C/C=C/C=C/C=C/C=C/C=C/[C@H](O[C@@H]2O[C@H](C)[C@@H](O)[C@H](N)[C@@H]2O)C[C@@H]2O[C@](O)(C[C@@H](O)C[C@@H](O)[C@H](O)CC[C@@H](O)C[C@@H](O)CC(=O)O[C@H]1C)C[C@H](O)[C@H]2C(=O)O | 1.45 ± 0.062
12 | COc1cc(/C=C/C(=O)c2ccc(O)cc2O)ccc1O | 1.14
13 | CCOC(=O)C(C)(C)Oc1ccc(Cl)cc1 [Clofibrate] | 1.4
14 | c1cnc2c(c1)ccc1cccnc12 ["1,10-Phenanthroline monohydrate"] | 0.0787
15 | CC(C)NC[C@H](O)COc1ccc(CC(N)=O)cc1 [S(-)-Atenolol] | 1.14
16 | CC(C)NC[C@H](O)COc1ccc(CC(N)=O)cc1 [(S)-(-)-Atenolol] | 1.27
17 | N[C@H](CO)C(=O)O [D-Serine] | 0.994
18 | C=CC(C)(O)CCC1C(=C)CC(O)C2C(C)(C)CCCC12C (stereo not given) | 1.64
19 | O=S(=O)(c1cccc2cnccc12)N1CCNCC1 | 1.11
20 | NC(Cc1cccc(-c2ccccc2CP(=O)(O)O)c1)C(=O)O (stereo not drawn) [Phenylbenzene-omega-phosphono-alpha-amino acid] | 1.04
21 | CC(=O)N(O)CCCCCNC(=O)CCC(=O)N(O)CCCCCNC(=O)CCC(=O)N(O)CCCCCN | 0.414
22 | C[N+]1(C)CCC[C@H]1C(=O)[O-] | 1.09
23 | CC(C)/N=c1\cc2n(-c3ccc(Cl)cc3)c3ccccc3nc-2cc1Nc1ccc(Cl)cc1 | 0.772

Row | SMILES | normalized bacterial growth
24 | CCNC(=O)CC[C@H](N)C(=O)O | 1.17
25 | C[N+](C)(C)CCCCCNCC12CC3CC(CC(C3)C1)C2 | 1.02
26 | CCOC(=O)[C@]12CC1/C(=N\O)c1ccccc1O2 (stereo not given in full) | 1.25
27 | CCCCC1OC(=O)C2=CCCCC21 (stereo not given) | 1.27
28 | CC(C)(C(=O)c1cccnc1)c1cccnc1 [Metyrapone] | 1.49
29 | NCCCCNCCCN [Spermidine trihydrochloride] | 1.1
30 | CN1CC(=O)NC1=N | 1.04
31 | Nc1ccc(-c2nc3ccc(-c4nc5ccc(N)cc5[nH]4)cc3[nH]2)cc1 | 0.963
32 | COc1cc(-c2coc3cc(OC)c(OC)c(OC)c3c2=O)cc(OC)c1OC | 0.609
33 | C[C@]12CCC3c4ccc(OC(=O)c5ccccc5)cc4CCC3C1CCC2=O (stereo not given in full) | 0.791
34 | Cn1ccnc1S | 1.26
35 | Cn1ccnc1S [Methimazole] | 0.962
36 | Nc1c(Br)cc(Br)cc1CN[C@H]1CC[C@H](O)CC1 | 0.889
37 | Nc1c(Br)cc(Br)cc1CN[C@H]1CC[C@H](O)CC1 [Ambroxol hydrochloride] | 1.19
38 | CC(=O)NC1[C@@H](O)OC(CO)[C@@H](O)[C@H]1O[C@H](C)C(=O)O (stereo not given in full) ["Muramic acid, N-acetyl"] | 1.14
39 | Oc1ccc(Cl)c2cccnc12 | 0.534
40 | CN1CCc2ccccc2Cc2[nH]c3ccccc3c2CC1 | 0.888
41 | CC(C)(Sc1cc(C(C)(C)C)c(O)c(C(C)(C)C)c1)Sc1cc(C(C)(C)C)c(O)c(C(C)(C)C)c1 | 1.15
42 | CCN1C(=O)NC(c2ccccc2)C1=O (stereo not given) [Ethotoin] | 0.955
43 | COc1ccccc1N1CCN(CC(O)COc2cccc3ccccc23)CC1 (stereo not given) [Naftopidil dihydrochloride] | 0.81
44 | CN1CCCC(CC2c3ccccc3Sc3ccccc32)C1 (stereo not given) [Metixene hydrochloride] | 0.922
45 | CN1CCC(=C2c3ccccc3CC(=O)c3sccc32)CC1 [Ketotifen fumarate] | 1.11
46 | COc1ccc2c(c1)N(C[C@H](C)CN(C)C)c1ccccc1S2 [Methotrimeprazine maleat salt] | 0.938

Row | SMILES | normalized bacterial growth
47 | CC[C@H](CC[C@@H](C)[C@H]1CC[C@H]2[C@@H]3CC=C4C[C@@H](O)CC[C@]4(C)[C@H]3CC[C@]12C)C(C)C [beta-SITOSTEROL] | 0.964
48 | CCCCC[C@H](CC(=O)O)C(=O)O | 1.3
49 | CCCN(CCC)C(=O)C(CCC(=O)O)NC(=O)c1ccccc1 (stereo not given) [Proglumide] | 1.01
50 | COc1cc(OC)c(C(=O)CCCN2CCCC2)c(OC)c1 [Buflomedil hydrochloride] | 0.991
51 | CC(=O)NCCc1c[nH]c2ccc(O)cc12 [N-Acetyl-5-hydroxytryptamine] | 1.02
52 | O=c1ccc2ccc(O)c(O)c2o1 [Daphnetin] | 1.07
53 | O=C[C@H](O)[C@H](O)CO | 1.36
54 | OCC1=C[C@@H](O)[C@@H]2C=CO[C@@H](O[C@@H]3O[C@H](CO)[C@@H](O)[C@H](O)[C@H]3O)[C@H]12 | 1.02
55 | CCC(=O)OCC(=O)[C@@]1(OC(=O)CC)[C@H](C)CC2C3C([C@@H](O)C[C@@]21C)[C@@]1(C)C=CC(=O)C=C1C[C@H]3Cl (stereo not given in full) | 0.767
56 | CSc1ccc(C(=O)c2[nH]c(=O)[nH]c2C)cc1 [Enoximone] | 1.12
57 | CC(C)(S)[C@@H](N)C(=O)O | 1.25
58 | Cc1cc(C(=O)NNCc2ccccc2)no1 [Isocarboxazid] | 1.16
59 | O=C(O)CCCN1C(=O)c2cccc3cccc(c23)C1=O | 0.993
60 | CO[C@H]1C[C@H](O[C@H]2[C@H](C)[C@@H](O[C@@H]3O[C@H](C)C[C@H](N(C)C)[C@H]3OC(C)=O)[C@@H](C)C[C@@]3(CO3)C(=O)[C@H](C)[C@@H](OC(C)=O)[C@@H](C)[C@@H](C)OC(=O)[C@@H]2C)O[C@@H](C)[C@@H]1OC(C)=O | 0.765 ± 0.13
61 | CO[C@H]1C[C@H](O[C@H]2[C@H](C)[C@@H](O[C@@H]3O[C@H](C)C[C@H](N(C)C)[C@H]3OC(C)=O)[C@@H](C)C[C@@]3(CO3)C(=O)[C@H](C)[C@@H](OC(C)=O)[C@@H](C)[C@@H](C)OC(=O)[C@@H]2C)O[C@@H](C)[C@@H]1OC(C)=O [Troleandomycin] | 0.572
62 | COc1ccc(-c2ccc(=N)n(CCCC(=O)O)n2)cc1 | 0.943
63 | COc1ccc(-c2ccc(=N)n(CCCC(=O)O)n2)cc1 [Gabazine] | 1.1
64 | CCCCCCCCCCC[C@@H](C[C@@H]1OC(=O)[C@H]1CCCCCC)OC(=O)[C@H](CC(C)C)NC=O | 0.986
65 | COc1ccc(-c2oc3ccccc3c(=O)c2OC)cc1 | 0.825
66 | S=C(Nc1ccccc1)Nc1nccs1 [1-Phenyl-3-(2-thiazolyl)-2-thiourea] | 0.839
67 | COc1cc(C/C=C/c2ccccc2)c(OC)cc1O | 0.61
68 | O=C1O[C@H](CO)[C@@H](O)[C@H](O)[C@H]1O | 1.15
69 | CCCCCCCCCCCCCC/C(C(=O)O)=C(\C)C(=O)O | 0.649

Given as a markdown table: part of the list above

| Row | SMILES | normalized bacterial growth |
| --- | --- | --- |
| 48 | CCCCC[C@H](CC(=O)O)C(=O)O | 1.3 |
| 55 | CCC(=O)OCC(=O)[C@@]1(OC(=O)CC)[C@H](C)CC2C3C([C@@H](O)C[C@@]21C)[C@@]1(C)C=CC(=O)C=C1C[C@H]3Cl (stereo not given in full) | 0.767 |

The listing continues.

Row | SMILES | normalized bacterial growth
70 | CC1(C)CCC[C@]2(C)[C@@H]3[C@H]1[C@@H](O)[C@@]2(C)C[C@H]3O | 1.11
71 | COc1cc2ncc(-c3ccccc3)nc2cc1OC [Tyrphostin AG 1296] | 1.19
72 | COc1ccc(-c2c(O)c3c(OC)c4c(cc3oc2=O)OC(C)(C)C=C4)cc1 | 0.837
73 | CC(=O)NO | 0.965
74 | CN(C)CC/C=C1\c2ccccc2CSc2ccccc21 [Dosulepin hydrochloride] | 0.855
75 | CN1CCCN=C1COC(=O)C(O)(c1ccccc1)C1CCCCC1 (stereo not given) | 1
76 | CC(C)(Oc1ccc(Cl)cc1)C(=O)O [Clofibric acid] | 1.41
77 | CCC(=O)OC1[C@@H]2CC3=C4CC(=O)O[C@@H](c5ccoc5)[C@]4(C)CCC3[C@@](C)(C2=O)[C@@H](CC(=O)OC)C1(C)C (stereo not given in full) | 0.917
78 | COC(=O)C[C@H]1C(C)(C)C(=O)[C@@H]2CC3=C(CC[C@]4(C)C3=CC(=O)O[C@H]4c3ccoc3)[C@@]1(C)C2=O | 1.01
79 | C=C1C(=O)[C@]23[C@H](CC[C@@H]1[C@@H]2O)[C@]12CO[C@@]3(O)[C@H](O)[C@H]1C(C)(C)CC[C@@H]2O | 1.32
80 | COc1cc(O)cc(O)c1C(C)=O | 0.816
81 | CS(=O)(=O)c1ccc(C2=C(c3ccccc3)C(=O)OC2)cc1 | 1.23
82 | COc1ccc2c(c1OC)OC[C@@H](c1ccc(OC)c(OC)c1OC)C2 | 0.621
83 | CN(C)CCC=C1c2ccccc2CCc2ccccc21 [Amitriptyline hydrochloride] | 0.977
84 | Cc1[nH]c(=O)c(C#N)cc1-c1ccncc1 [Milrinone] | 1.22
85 | C[C@]12CC[C@H]3C(=CCc4cc(O)ccc43)[C@@H]1CCC2=O | 0.817
86 | C[C@]12CC[C@H]3C(=CCc4cc(O)ccc43)[C@@H]1CCC2=O [Equilin] | 0.766
87 | C[C@]12C=CC(=O)C=C1CC[C@@H]1[C@@H]2[C@@H](O)C[C@@]2(C)[C@H]1CC[C@]2(O)C(=O)COP(=O)(O)O | 0.941
88 | CCCCCC/C=C\CCCCCCCc1cccc(O)c1C(=O)O | 1.12
89 | N=C(N)N | 1.01
90 | NC(N)=NCCNS(=O)(=O)c1cccc2cnccc12 [HA-1004 hydrochloride] | 1.29

Some of the entries so far, field by field:
CN1CCCN=C1COC(=O)C(O)(c1ccccc1)C1CCCCC1 (stereo not given)
  normalized bacterial growth: 1
COC(=O)C[C@H]1C(C)(C)C(=O)[C@@H]2CC3=C(CC[C@]4(C)C3=CC(=O)O[C@H]4c3ccoc3)[C@@]1(C)C2=O
  normalized bacterial growth: 1.01
COc1cc(O)cc(O)c1C(C)=O
  normalized bacterial growth: 0.816
CS(=O)(=O)c1ccc(C2=C(c3ccccc3)C(=O)OC2)cc1
  normalized bacterial growth: 1.23
